Data as given in PubChem BioAssay AID1259254 (NCATS, 2017)
Screen: 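Gene knock-downs that lead to re-replication, shown by excess G2 DNA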 (primary screen). System: human HCT116 colorectal cancer cells. Reagents: single siRNA against human genes. Time to read-out: 3 days. Detection: 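Nuclei stained with Hoechst and imaged; cell-cycle phase assigned by DNA content; G2 share scaled per plate, non-targeting siRNA 0%, GMNN siRNA 100%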. Direction: G2 robust z-score: higher = more G2 cells, more excess DNA replication. Rule for the call: 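Active siRNAs have a G2 robust z of 5 or more median absolute deviations over the median, which in these data means about 38% or higher of GMNN control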.
The deposit covers about 59,000 reagents; shown is a random part of them. Of all reagents, about 1,550 (2.6%) are marked active. 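G2 share is only a proxy for re-replication; each gene was hit by three separate siRNAs, and active genes were retested.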 A number with no mark means an inactive call. Reagents against one gene are numbered here. Further read-outs or replicates are left out here. Not stated in the record: the amount of reagent.

For CAPN6 (calpain 6) #1, how do the results read?
G2 robust z-score: -1.22

What did the screen give for CAPN6 (calpain 6) #2?
G2 robust z-score: -0.895

With CAPN6 (calpain 6) #3, what was measured?
G2 robust z-score: -0.96

What did the screen give for USP7 (ubiquitin specific peptidase 7) #1?
G2 robust z-score: -1.63

What did the screen give for USP7 (ubiquitin specific peptidase 7) #2?
G2 robust z-score: 2.37

What did the screen give for USP7 (ubiquitin specific peptidase 7) #3?
G2 robust z-score: -0.959

How did the screen score ROGDI (rogdi atypical leucine zipper) #1?
G2 robust z-score: -0.78

What did the screen give for ROGDI (rogdi atypical leucine zipper) #2?
G2 robust z-score: -0.429

What is on record for ROGDI (rogdi atypical leucine zipper) #3?
G2 robust z-score: 2.61

With STARD3NL (STARD3 N-terminal like) #1, what was measured?
G2 robust z-score: -0.644

Which result is listed for STARD3NL (STARD3 N-terminal like) #2?
G2 robust z-score: 2.47

With STARD3NL (STARD3 N-terminal like) #3, how do the results read?
G2 robust z-score: 0.603
